Article PMC4847484 (Chemical Communications (Cambridge, England), 2015)

Columns and labels:
[1] = general procedure: peptide synthesis; pre-loaded glycine chlorotrityl resin; conditions: cyclisation step; run 1
[2] = peptide made by a vendor (peptide synthesis; pre-loaded glycine chlorotrityl resin); conditions: whole synthesis

Substance	cyclisation yield [1]	purity (crude or final not stated) [2]
H-ACSDRFRNCPADEALCG-NH2 (cysteine pairing not given here) [LLD]	10%	
H-ACSDRFRNCPADEALCG-NH2 (cysteine pairing not given here) [DLL]	26%	
H-ACSDRFRNCPADEALCG-NH2 (cysteine pairing not given here) [PK15]	29%	
H-LTFCEYWAQLCSAA-OH (cysteine pairing not given here)		>80% purity
H-ACSDRFRNCPADEALCG-NH2 (cysteine pairing not given here) [DLD]	16%	
H-ACSDRFRNCPADEALCG-NH2 (cysteine pairing not given here) [DDL]	26%	
H-ACSDRFRNCPADEALCG-NH2 (cysteine pairing not given here) [DDD]	26%	
H-ACSDRFRNCPADEALCG-NH2 (cysteine pairing not given here) [LDD]	24%	
H-ACSDRFRNCPADEALCG-NH2 (cysteine pairing not given here) [LDL]	16%	
